Values from PubChem BioAssay AID1259405 (NCATS, 2018).

Screen: 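Silenced genes that increase secreted GFP made by CHO cells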 (primary screen)
Cell system: Chinese hamster CHO-K1 ovary cells with stable secreted eGFP expression
Reagents: single siRNA against mouse genes, 0.8 pmol siRNA per well (2 µl of 400 nM stock)
Timing: 3 days
Read-out: 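Percent of the per-plate non-targeting control median for intracellular GFP per well by laser scanning cytometry and for cell viability by ATP luminescence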
Direction: GFP, % of control: higher = more GFP per well, higher productivity; viability (ATP), % of control: higher = more viable cells (more ATP)
Call rule: 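Called active when intracellular GFP, relative to negative control, is at or above 120%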
In all, the deposit lists about 50,000 reagents; shown is a part drawn at random. About 4,000 of all reagents (8%) count as active. 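Mouse siRNA library applied to hamster cells; one well for each siRNA.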 Reagents against one gene are numbered here.

Gene	reagent	GFP, % of control	viability (ATP), % of control	outcome
Spaca4 (sperm acrosome associated 4)	1	83.1	93	inactive
Spaca4 (sperm acrosome associated 4)	2	77.7	62.7	inactive
Spaca4 (sperm acrosome associated 4)	3	68.7	71.1	inactive
Gpa33 (glycoprotein A33 transmembrane)	1	82.1	71.4	inactive
Gpa33 (glycoprotein A33 transmembrane)	2	97.3	100	inactive
Adcy4 (adenylate cyclase 4)	1	69.2	65.3	inactive
Adcy4 (adenylate cyclase 4)	2	59.5	77.2	inactive
Adcy4 (adenylate cyclase 4)	3	33.7	26.7	inactive
Prss50 (serine protease 50)	1	101	117	inactive
Prss50 (serine protease 50)	2	55.2	56.2	inactive
Prss50 (serine protease 50)	3	69.9	64.1	inactive
Ooep (oocyte expressed protein)	1	106	84.2	inactive
Ooep (oocyte expressed protein)	2	69.1	50.5	inactive
Ooep (oocyte expressed protein)	3	97.2	80.5	inactive
Gm20735 (predicted gene, 20735)	1	91.1	72.5	inactive
Gm20735 (predicted gene, 20735)	2	77.7	61.2	inactive
Gm20735 (predicted gene, 20735)	3	69.7	97.6	inactive
Ddx27 (DEAD box helicase 27)	1	88.9	74.6	inactive
Ddx27 (DEAD box helicase 27)	2	86.6	82.3	inactive
Ddx27 (DEAD box helicase 27)	3	55.7	46.5	inactive
Fasl (Fas ligand)	1	77	91.8	inactive
Fasl (Fas ligand)	2	56.4	65.5	inactive
Fasl (Fas ligand)	3	46.3	66.2	inactive
Coq8a (coenzyme Q8A)	1	70.1	87.4	inactive
Coq8a (coenzyme Q8A)	2	69.5	71.5	inactive
Coq8a (coenzyme Q8A)	3	120	151	inactive
Or52b1 (olfactory receptor family 52 subfamily B member 1)	1	87.6	69.2	inactive
Or52b1 (olfactory receptor family 52 subfamily B member 1)	2	29.1	49.6	inactive
Or52b1 (olfactory receptor family 52 subfamily B member 1)	3	53.6	96.9	inactive
Ttc8 (tetratricopeptide repeat domain 8)	1	91.8	121	inactive
Ttc8 (tetratricopeptide repeat domain 8)	2	50.8	63.2	inactive
Ttc8 (tetratricopeptide repeat domain 8)	3	82.3	51	inactive
Rd3 (retinal degeneration 3)	1	75.3	105	inactive
Rd3 (retinal degeneration 3)	2	102	106	inactive
Rd3 (retinal degeneration 3)	3	87.1	95.9	inactive
Vmo1 (vitelline membrane outer layer 1 homolog (chicken))	1	71	72.3	inactive
Vmo1 (vitelline membrane outer layer 1 homolog (chicken))	2	118	90.1	inactive
Vmo1 (vitelline membrane outer layer 1 homolog (chicken))	3	147	102	active
Pabpc6 (poly(A) binding protein, cytoplasmic 6)	1	98.8	56.8	inactive
Pabpc6 (poly(A) binding protein, cytoplasmic 6)	2	104	68.3	inactive
Pabpc6 (poly(A) binding protein, cytoplasmic 6)	3	121	110	active
Hps6 (HPS6, biogenesis of lysosomal organelles complex 2 subunit 3)	1	72.4	74.3	inactive
Hps6 (HPS6, biogenesis of lysosomal organelles complex 2 subunit 3)	2	49	60	inactive
Hps6 (HPS6, biogenesis of lysosomal organelles complex 2 subunit 3)	3	138	101	active
Grk4 (G protein-coupled receptor kinase 4)	1	109	98	inactive
Grk4 (G protein-coupled receptor kinase 4)	2	32.2	35.6	inactive
Grk4 (G protein-coupled receptor kinase 4)	3	102	112	inactive
Vps13c (vacuolar protein sorting 13C)	1	53	65.8	inactive
Vps13c (vacuolar protein sorting 13C)	2	78.4	70.2	inactive
Vps13c (vacuolar protein sorting 13C)	3	71.5	94	inactive
Lrp1b (low density lipoprotein-related protein 1B)	1	58.5	46	inactive
Lrp1b (low density lipoprotein-related protein 1B)	2	72.7	60.3	inactive
Lrp1b (low density lipoprotein-related protein 1B)	3	77.3	51.8	inactive
Lce1a2 (late cornified envelope 1A2)	1	71.7	104	inactive
Lce1a2 (late cornified envelope 1A2)	2	150	125	active
Lce1a2 (late cornified envelope 1A2)	3	133	143	active
Or4a15 (olfactory receptor family 4 subfamily A member 15)	1	65.3	59.6	inactive
Or4a15 (olfactory receptor family 4 subfamily A member 15)	2	57.4	51.2	inactive
Or4a15 (olfactory receptor family 4 subfamily A member 15)	3	41.3	63.9	inactive
Phyhipl (phytanoyl-CoA hydroxylase interacting protein-like)	1	93.6	41	inactive
Phyhipl (phytanoyl-CoA hydroxylase interacting protein-like)	2	34.7	27.4	inactive
Phyhipl (phytanoyl-CoA hydroxylase interacting protein-like)	3	70.6	87.1	inactive
Agrp (agouti related neuropeptide)	1	67.4	67.5	inactive
Agrp (agouti related neuropeptide)	2	52.2	41	inactive
Agrp (agouti related neuropeptide)	3	30.4	28.2	inactive
Rabepk (Rab9 effector protein with kelch motifs)	1	117	85.4	inactive
Rabepk (Rab9 effector protein with kelch motifs)	2	79.3	60.1	inactive
Rabepk (Rab9 effector protein with kelch motifs)	3	31.1	55.4	inactive
Jund (jun D proto-oncogene, AP-1 transcription factor subunit)	1	71	98.7	inactive
Jund (jun D proto-oncogene, AP-1 transcription factor subunit)	2	61.5	35.4	inactive
Jund (jun D proto-oncogene, AP-1 transcription factor subunit)	3	79.6	86.2	inactive
Or5m11 (olfactory receptor family 5 subfamily M member 11)	1	75.4	105	inactive
Or5m11 (olfactory receptor family 5 subfamily M member 11)	2	78.3	99.2	inactive
Or5m11 (olfactory receptor family 5 subfamily M member 11)	3	165	81.5	active
Rap1b (RAS related protein 1b)	1	65.7	62.7	inactive
Rap1b (RAS related protein 1b)	2	71.7	63.1	inactive
Rap1b (RAS related protein 1b)	3	40	56.1	inactive
Irgc (immunity related GTPase cinema)	1	89.3	76.1	inactive
Irgc (immunity related GTPase cinema)	2	78.4	58.4	inactive
Irgc (immunity related GTPase cinema)	3	61	52.8	inactive
Ifrd2 (interferon-related developmental regulator 2)	1	99.6	108	inactive
Ifrd2 (interferon-related developmental regulator 2)	2	70.4	58.8	inactive
Ifrd2 (interferon-related developmental regulator 2)	3	81.8	60	inactive
Nt5c3 (5'-nucleotidase, cytosolic III)	1	85.4	55.4	inactive
Nt5c3 (5'-nucleotidase, cytosolic III)	2	73.5	86.7	inactive
Nt5c3 (5'-nucleotidase, cytosolic III)	3	73	56.8	inactive

Entries above called active (6):
Gene	reagent	GFP, % of control	viability (ATP), % of control	outcome
Vmo1 (vitelline membrane outer layer 1 homolog (chicken))	3	147	102	active
Pabpc6 (poly(A) binding protein, cytoplasmic 6)	3	121	110	active
Hps6 (HPS6, biogenesis of lysosomal organelles complex 2 subunit 3)	3	138	101	active
Lce1a2 (late cornified envelope 1A2)	2	150	125	active
Lce1a2 (late cornified envelope 1A2)	3	133	143	active
Or5m11 (olfactory receptor family 5 subfamily M member 11)	3	165	81.5	active
